One molecule from patent publication US20160367708A1, “COMPOSITIONS AND METHODS OF TREATING CANCER” (THE JOHNS HOPKINS UNIVERSITY, priority 2013, published 2016) can be followed below.

The series relates to mouse CRL2836 or human HeLa cells. Put plainly: Assessment of ^32P incorporated into DNA (DNase I digestion, gel autoradiography). The series is classed as cell-based. The note with it: digestion with DNase I.

As to `O=[32P](O)(O)O` [[^32P]PO4, ^32P monophosphate], the “incorporation of ^32P into cellular DNA” value is on record as “directly incorporated into cellular DNA”.
